Assay results from patent US20150231240A1, “ANTI-C16ORF54 ANTIBODIES AND METHODS OF USE THEREOF” (priority 2012, published 2015).
These are yes or no findings as the source states them, for the method shown. Some binding calls cover weakened binding; strength is not graded here.

B1: R29-7-2A (antibody, V domains shown)
VH: EVQLVESGGGLIQPKGSLKLSCVASGFSFNTHAMNWVRQAPGKGLEWVARIRSKSNNYARYYADSVKDRFTISRDDSQSILYLQMNNLKTEDTAMYYCVKQGDGGFAYWGQGTLVTVSA
VL: DIVMSQSPSSLAVSVGEKVTMSCKSSQSLLYSSNQKNYLAWYQQRPGQSPKLLIYWASARESGVPDRFTGSGSGTDFTLTISSVKAEDLAVYYCQQYYSYPPTFGAGTKVELK
notes: Murine monoclonal IgG2b from a hybridoma
B2: R29-67-7A (antibody, V domains shown)
VH: DVQLQESGPGLVKPSQSLSLTCTVTGYSITSDYAWNWIRQFPGNKLEWMGYINYSGRTRYNPSLNSRISLTRDTSTNQFFLQLNSVTTEDTATYYCARENYDYEFYAMDYWGQGTSVTVSS
VL: DIVMSQSPSSLAVSVGEKVTMSCKSSQNLLYSSNQKNYLAWYQQKPGQSPKLLIYWASTRESGVPDRFTGSGSGTDFTLTISSVKAEDLAVYYCQQYYIYRTFGGGTKLEIK
notes: Murine monoclonal IgG2a from a hybridoma
B3: R29-7-1C (antibody, V domains shown)
VH: DVQLQESGPGLVKPSQSLSLTCTVTGYSITSDYAWNWIRQFPGNKLEWMGYISYSGSIRYNPSLKSRISITRDTSKNQFFLQLNSVTTEDTATYYCAREKYDNYYYAMDYWGQGTSVTVSS
VL: DIVMSQSPSSLAVSVGEKVTLSCKSSQNLLYSTNQKNYLAWYQQKPGQSPKLLIYWASTRESGVPDRFTGSGSGTDFTLTISSVKAEDLAVYYCQQYYSYRTFGGGTKLEIK
notes: as for B2

Molecular target: T1, N-terminal 32 amino acids of huC16orf54 coupled to biotin (human)
T1 sequence (peptide, biotin at the C-terminus): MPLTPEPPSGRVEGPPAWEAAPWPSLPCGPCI
Test: binding experiments of Example 5 (biolayer interferometry)

| Binder | binding |
| --- | --- |
| B1 | binds |
| B2 | binds |
| B3 | binds |
